Results deposited as PubChem BioAssay AID1224830 (NIAID, 2016)
This is one part, drawn at random, of about 18,000 deposited reagents. In the full data, about 2,900 (16%) are marked active. 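Calls are made per well; low scores hint the gene aids the LPS response, high scores that it dampens it.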 Repeated entries: four replicate wells of each siRNA pool.

Aim: 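Genes whose knock-down alters the TNF-alpha reporter response to LPS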 (primary screen)
System: human THP-1 monocytic leukaemia cells, TNF dual-luciferase reporter clone, PMA-differentiated to macrophage-like cells
Knock-down reagent: siRNA pool against human genes, 50 nM
Duration: LPS for 4 h, given about 3 days after siRNA transfection
Conditions: bacterial LPS (TLR4 ligand), 10 ng/ml
Measured: 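Ratio of firefly to renilla light, scaled to the plate median and expressed as a robust z-score per replicate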
Direction: TNF reporter robust z-score: higher = stronger TNF reporter response to LPS
Hit rule: 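Each well counts as active if its z-score is over 2.8 or under -1.5; controls are left without a call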

Which result is listed for PGR?
TNF reporter robust z-score: 2.53; call: inactive

How did the screen score PGR?
TNF reporter robust z-score: 2.56; call: inactive

With PGR, how do the results read?
TNF reporter robust z-score: 1.77; call: inactive

What did the screen give for PGR?
TNF reporter robust z-score: 1.63; call: inactive

What did the screen give for CLDN5?
TNF reporter robust z-score: -0.42; call: inactive

What did the screen give for CLDN5?
TNF reporter robust z-score: -0.16; call: inactive

With CLDN5, what was measured?
TNF reporter robust z-score: -0.18; call: inactive

For CLDN5, what was measured?
TNF reporter robust z-score: -0.12; call: inactive

How did the screen score PFKFB1?
TNF reporter robust z-score: 3.11; call: active

With PFKFB1, what was measured?
TNF reporter robust z-score: 2.9; call: active

For PFKFB1, what was measured?
TNF reporter robust z-score: -0.85; call: inactive

Which result is listed for PFKFB1?
TNF reporter robust z-score: -0.38; call: inactive

With H4C9, what was measured?
TNF reporter robust z-score: 0.19; call: inactive

For H4C9, what does the deposit list?
TNF reporter robust z-score: 0.36; call: inactive

With H4C9, what was measured?
TNF reporter robust z-score: 0.11; call: inactive

With H4C9, how do the results read?
TNF reporter robust z-score: 0.22; call: inactive

Which result is listed for RNFT1?
TNF reporter robust z-score: -1.32; call: inactive

With RNFT1, what does the deposit list?
TNF reporter robust z-score: 0; call: inactive

For RNFT1, what was measured?
TNF reporter robust z-score: 0.35; call: inactive

For RNFT1, what was measured?
TNF reporter robust z-score: -1.56; call: active

A portion taken from the entries so far, for reference:
CLDN5 | TNF reporter robust z-score: -0.12; call: inactive
PFKFB1 | TNF reporter robust z-score: 3.11; call: active
PFKFB1 | TNF reporter robust z-score: 2.9; call: active
PFKFB1 | TNF reporter robust z-score: -0.85; call: inactive
PFKFB1 | TNF reporter robust z-score: -0.38; call: inactive

Continued.
How did the screen score DNAJC15?
TNF reporter robust z-score: -0.24; call: inactive

How did the screen score DNAJC15?
TNF reporter robust z-score: -1.1; call: inactive

For DNAJC15, what was measured?
TNF reporter robust z-score: -0.85; call: inactive

How did the screen score DNAJC15?
TNF reporter robust z-score: -0.84; call: inactive

For RASIP1, what does the deposit list?
TNF reporter robust z-score: 0.15; call: inactive

For RASIP1, what does the deposit list?
TNF reporter robust z-score: -0.53; call: inactive

With RASIP1, how do the results read?
TNF reporter robust z-score: -1.02; call: inactive

For RASIP1, what does the deposit list?
TNF reporter robust z-score: 0.58; call: inactive

With MRPL33, what was measured?
TNF reporter robust z-score: 0.02; call: inactive

Which result is listed for MRPL33?
TNF reporter robust z-score: 1.6; call: inactive

For MRPL33, what was measured?
TNF reporter robust z-score: 0.61; call: inactive

For MRPL33, how do the results read?
TNF reporter robust z-score: 0.98; call: inactive
